Results as given in publication PMC4589731.
Results are given in words; binding and its absence hold for the method and conditions named. In cells and extracts the contact can be indirect. Some results given as binding are weak or reduced against the parent protein; the word gives no strength. Tags and fused reporters may be left off the sequences shown.

Amino acid sequences for entries named in this document (tags omitted).
UniProt Q14999: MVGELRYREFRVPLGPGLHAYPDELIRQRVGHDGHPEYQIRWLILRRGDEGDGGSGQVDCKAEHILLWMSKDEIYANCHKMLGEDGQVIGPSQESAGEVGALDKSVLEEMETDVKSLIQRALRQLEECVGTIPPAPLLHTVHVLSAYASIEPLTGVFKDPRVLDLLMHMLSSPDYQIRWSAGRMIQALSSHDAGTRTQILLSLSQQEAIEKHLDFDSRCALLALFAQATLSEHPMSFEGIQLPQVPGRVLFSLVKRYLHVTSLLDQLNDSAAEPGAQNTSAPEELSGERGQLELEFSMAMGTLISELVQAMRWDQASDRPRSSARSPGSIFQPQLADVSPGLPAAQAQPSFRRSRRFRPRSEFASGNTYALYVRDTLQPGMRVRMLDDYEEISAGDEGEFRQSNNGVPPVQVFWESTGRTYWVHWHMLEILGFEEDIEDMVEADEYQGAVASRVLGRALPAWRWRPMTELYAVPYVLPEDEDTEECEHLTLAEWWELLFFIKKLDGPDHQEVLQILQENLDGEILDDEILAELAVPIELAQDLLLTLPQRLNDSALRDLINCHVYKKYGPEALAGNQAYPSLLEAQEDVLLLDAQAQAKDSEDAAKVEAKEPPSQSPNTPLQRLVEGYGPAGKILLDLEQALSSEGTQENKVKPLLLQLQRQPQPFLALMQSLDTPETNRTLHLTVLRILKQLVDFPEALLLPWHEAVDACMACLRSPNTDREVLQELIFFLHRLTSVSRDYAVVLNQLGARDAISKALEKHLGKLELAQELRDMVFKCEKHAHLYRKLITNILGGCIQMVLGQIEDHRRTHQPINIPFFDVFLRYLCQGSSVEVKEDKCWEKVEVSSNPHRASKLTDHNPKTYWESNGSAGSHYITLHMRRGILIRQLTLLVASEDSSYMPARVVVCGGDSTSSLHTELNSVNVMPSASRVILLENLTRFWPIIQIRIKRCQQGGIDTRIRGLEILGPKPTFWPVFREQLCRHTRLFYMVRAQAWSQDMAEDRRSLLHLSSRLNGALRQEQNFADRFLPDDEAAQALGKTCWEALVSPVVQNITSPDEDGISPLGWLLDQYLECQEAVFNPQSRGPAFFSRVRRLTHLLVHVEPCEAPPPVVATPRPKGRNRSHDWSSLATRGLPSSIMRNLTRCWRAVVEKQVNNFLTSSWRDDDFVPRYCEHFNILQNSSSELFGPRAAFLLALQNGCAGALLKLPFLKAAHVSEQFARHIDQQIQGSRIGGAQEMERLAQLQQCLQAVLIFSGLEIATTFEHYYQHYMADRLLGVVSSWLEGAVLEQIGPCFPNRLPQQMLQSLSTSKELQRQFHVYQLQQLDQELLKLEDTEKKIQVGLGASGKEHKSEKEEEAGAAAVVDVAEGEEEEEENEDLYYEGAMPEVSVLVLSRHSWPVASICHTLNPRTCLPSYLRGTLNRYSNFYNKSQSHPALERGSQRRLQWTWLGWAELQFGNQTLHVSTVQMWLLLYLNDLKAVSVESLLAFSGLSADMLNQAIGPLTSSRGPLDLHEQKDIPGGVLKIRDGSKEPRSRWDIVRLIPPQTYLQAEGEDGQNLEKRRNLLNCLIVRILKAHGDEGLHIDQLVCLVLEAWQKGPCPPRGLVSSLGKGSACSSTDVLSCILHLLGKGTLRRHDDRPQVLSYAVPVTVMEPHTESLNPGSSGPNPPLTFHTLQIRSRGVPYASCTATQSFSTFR
UniProt O75147: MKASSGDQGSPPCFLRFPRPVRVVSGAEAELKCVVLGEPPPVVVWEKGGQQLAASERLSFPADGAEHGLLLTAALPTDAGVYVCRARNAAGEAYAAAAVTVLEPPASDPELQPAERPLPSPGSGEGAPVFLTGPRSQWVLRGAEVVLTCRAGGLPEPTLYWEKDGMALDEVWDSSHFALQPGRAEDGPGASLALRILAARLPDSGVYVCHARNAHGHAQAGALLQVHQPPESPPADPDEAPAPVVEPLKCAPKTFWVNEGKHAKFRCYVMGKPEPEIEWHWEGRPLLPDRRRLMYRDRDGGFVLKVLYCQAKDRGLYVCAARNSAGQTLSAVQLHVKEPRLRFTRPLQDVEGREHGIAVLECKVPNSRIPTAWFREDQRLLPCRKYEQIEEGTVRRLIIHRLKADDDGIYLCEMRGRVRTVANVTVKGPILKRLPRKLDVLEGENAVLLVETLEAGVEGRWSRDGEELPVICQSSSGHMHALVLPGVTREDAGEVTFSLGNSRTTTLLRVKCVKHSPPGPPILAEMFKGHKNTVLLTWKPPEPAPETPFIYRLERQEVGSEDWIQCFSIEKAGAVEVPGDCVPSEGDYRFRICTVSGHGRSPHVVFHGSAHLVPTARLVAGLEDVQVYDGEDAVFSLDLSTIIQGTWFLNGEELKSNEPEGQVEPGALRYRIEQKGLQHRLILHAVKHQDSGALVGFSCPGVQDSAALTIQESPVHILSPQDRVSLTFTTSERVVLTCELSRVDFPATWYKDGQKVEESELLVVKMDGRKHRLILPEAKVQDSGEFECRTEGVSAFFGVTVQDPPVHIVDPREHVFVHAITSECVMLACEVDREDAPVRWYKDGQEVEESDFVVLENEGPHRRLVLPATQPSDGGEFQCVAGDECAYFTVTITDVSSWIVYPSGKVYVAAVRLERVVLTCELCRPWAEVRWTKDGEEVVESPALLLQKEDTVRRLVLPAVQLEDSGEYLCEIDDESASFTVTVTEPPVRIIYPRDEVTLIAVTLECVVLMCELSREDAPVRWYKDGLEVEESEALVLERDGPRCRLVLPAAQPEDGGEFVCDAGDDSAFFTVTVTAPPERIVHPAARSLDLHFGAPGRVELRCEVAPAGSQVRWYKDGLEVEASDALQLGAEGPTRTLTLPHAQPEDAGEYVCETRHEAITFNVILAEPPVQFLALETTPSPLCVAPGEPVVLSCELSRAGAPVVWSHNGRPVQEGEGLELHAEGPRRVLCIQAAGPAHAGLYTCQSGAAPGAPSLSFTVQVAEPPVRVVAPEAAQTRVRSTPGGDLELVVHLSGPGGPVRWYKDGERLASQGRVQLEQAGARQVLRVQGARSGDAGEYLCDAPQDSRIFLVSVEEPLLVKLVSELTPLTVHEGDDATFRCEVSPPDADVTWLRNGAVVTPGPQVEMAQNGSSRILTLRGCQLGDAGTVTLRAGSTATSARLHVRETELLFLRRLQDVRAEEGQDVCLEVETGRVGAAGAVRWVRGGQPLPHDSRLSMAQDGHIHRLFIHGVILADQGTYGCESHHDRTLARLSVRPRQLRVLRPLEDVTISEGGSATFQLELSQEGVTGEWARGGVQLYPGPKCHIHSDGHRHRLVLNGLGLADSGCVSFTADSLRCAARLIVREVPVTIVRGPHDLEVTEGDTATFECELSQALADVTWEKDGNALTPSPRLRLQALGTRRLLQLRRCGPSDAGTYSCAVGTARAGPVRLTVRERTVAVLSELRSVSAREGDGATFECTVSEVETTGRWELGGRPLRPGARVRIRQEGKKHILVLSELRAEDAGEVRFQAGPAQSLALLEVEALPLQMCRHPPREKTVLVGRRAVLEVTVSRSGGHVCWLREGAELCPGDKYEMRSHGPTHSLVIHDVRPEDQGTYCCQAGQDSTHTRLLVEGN

Molecular target: T1, Flag-tagged CCDC8 (human) (UniProt Q9H0W5)
T1 sequence: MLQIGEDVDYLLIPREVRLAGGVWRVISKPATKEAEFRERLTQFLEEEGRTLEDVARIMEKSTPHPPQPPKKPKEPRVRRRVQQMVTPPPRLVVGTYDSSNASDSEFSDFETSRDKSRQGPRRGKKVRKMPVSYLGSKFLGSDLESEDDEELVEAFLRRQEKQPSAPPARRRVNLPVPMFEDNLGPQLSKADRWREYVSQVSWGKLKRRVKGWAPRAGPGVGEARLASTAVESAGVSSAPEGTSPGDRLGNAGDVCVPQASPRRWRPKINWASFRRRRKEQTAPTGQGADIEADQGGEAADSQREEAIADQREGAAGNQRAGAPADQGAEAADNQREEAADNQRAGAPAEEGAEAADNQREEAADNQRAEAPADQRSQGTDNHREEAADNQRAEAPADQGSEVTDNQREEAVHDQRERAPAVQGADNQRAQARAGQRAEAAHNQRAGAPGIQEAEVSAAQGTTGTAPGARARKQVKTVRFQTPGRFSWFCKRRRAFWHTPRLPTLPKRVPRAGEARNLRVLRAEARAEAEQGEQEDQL
Experiment: co-IP; lysates of transfected cells (BC100 buffer: 20 mM Tris-HCl pH 7.5, 100 mM NaCl, 1% Triton X-100, 1% CHAPS) incubated with anti-Flag M2 agarose beads at 4 °C overnight, five washes, eluted with 3xFlag peptide, Western blot; proteasome inhibitor PS-341 added in Fig. 4c

binding	Substance
binds	Flag-tagged E3 ligase Cul7 (from UniProt Q14999 1-1698)
binds	V5-tagged obscurin-like 1 (Obsl1) (from UniProt O75147 1-1896)
